# Results of single-concentration screens

The chains behind the UniProt entries cited, without tags or fusion partners. Residues count along the entry.
UniProt Q8IDJ8, 1-583: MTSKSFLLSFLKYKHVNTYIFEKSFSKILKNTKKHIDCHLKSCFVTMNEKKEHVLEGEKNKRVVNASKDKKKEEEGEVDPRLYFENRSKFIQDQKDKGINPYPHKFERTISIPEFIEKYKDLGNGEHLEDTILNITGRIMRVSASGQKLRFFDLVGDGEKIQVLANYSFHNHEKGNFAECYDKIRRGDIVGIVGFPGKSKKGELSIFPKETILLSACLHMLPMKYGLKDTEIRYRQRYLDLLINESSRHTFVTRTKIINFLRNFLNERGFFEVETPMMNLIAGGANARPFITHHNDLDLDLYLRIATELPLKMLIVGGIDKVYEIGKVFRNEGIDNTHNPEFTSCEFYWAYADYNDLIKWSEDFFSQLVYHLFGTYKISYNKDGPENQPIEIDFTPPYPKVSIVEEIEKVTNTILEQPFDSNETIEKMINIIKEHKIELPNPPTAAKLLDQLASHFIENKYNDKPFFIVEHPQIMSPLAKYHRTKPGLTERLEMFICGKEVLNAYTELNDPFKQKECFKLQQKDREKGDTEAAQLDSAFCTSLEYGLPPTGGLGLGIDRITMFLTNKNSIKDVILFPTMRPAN
UniProt I6X8D2, whole entry: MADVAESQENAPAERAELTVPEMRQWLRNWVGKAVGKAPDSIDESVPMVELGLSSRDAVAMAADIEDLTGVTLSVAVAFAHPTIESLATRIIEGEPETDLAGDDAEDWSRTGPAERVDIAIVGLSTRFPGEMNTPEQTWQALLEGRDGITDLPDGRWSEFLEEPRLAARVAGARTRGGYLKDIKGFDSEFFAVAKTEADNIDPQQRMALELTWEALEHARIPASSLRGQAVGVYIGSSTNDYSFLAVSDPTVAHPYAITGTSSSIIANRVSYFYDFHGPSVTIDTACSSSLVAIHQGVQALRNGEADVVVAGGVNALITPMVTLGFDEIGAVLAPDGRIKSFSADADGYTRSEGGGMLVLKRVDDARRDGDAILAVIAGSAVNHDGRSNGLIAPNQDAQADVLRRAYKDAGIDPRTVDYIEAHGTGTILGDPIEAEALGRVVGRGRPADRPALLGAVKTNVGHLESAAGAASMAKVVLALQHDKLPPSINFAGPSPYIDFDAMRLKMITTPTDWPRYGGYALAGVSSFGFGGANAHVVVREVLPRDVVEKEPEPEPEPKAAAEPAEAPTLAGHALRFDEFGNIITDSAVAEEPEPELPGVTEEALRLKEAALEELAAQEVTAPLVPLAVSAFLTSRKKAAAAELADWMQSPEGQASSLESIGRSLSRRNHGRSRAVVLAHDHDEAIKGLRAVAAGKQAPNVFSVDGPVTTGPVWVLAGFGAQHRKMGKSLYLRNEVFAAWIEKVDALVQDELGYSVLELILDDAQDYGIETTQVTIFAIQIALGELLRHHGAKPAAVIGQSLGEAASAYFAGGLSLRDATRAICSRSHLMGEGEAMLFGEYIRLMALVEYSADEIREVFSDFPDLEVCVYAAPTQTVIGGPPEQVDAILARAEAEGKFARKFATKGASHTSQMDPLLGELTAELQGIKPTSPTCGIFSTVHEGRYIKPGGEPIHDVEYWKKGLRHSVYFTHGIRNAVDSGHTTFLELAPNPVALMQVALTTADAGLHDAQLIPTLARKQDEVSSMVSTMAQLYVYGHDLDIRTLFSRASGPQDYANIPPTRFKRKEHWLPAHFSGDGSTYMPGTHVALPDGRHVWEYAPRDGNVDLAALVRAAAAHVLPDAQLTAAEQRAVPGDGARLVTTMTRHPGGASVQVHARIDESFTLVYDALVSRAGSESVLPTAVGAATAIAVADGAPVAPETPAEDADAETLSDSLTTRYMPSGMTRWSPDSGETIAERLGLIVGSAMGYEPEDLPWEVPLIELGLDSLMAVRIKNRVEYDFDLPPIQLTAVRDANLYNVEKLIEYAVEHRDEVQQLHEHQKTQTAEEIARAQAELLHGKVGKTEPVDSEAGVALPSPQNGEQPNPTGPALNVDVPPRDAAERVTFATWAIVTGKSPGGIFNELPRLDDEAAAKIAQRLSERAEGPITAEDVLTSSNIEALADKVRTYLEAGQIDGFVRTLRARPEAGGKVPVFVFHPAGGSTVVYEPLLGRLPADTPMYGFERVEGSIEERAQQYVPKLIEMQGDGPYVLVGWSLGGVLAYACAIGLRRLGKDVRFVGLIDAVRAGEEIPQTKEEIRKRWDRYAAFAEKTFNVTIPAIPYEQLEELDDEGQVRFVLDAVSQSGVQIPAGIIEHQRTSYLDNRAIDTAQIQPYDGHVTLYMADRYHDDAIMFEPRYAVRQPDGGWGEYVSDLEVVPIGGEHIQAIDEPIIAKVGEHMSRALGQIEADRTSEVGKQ
UniProt P9WPC5, whole entry: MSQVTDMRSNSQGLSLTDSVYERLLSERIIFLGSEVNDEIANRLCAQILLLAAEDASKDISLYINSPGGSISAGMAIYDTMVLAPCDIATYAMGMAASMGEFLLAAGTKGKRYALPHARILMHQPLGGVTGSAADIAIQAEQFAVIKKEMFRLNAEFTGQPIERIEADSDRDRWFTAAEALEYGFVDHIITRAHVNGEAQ
UniProt P9WPC3, whole entry partner: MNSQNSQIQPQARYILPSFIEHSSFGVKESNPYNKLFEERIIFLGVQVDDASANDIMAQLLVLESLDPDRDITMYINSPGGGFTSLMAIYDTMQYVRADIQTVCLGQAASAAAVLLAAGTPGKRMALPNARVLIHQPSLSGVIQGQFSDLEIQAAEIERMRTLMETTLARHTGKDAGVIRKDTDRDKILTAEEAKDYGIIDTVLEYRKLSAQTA

A: 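Lysine-tRNA ligase, Plasmodium falciparum 3D7 (UniProt Q8IDJ8). Enzyme assay of the cytosolic lysyl-tRNA synthetase in 384-well plates, read by luminescence. Tested at 30 µM. Higher reads as stronger inhibition, judged from the few compounds that gave an IC50. Size under these conditions: about 69,000 compounds, about 49 of them at 50% or above in at least one test.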
B: 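Enzyme assay of the thioesterase domain of polyketide synthase 13; the read-out is not stated. Target: Polyketide synthase Pks13, Mycobacterium tuberculosis (UniProt I6X8D2). Compounds at 30 µM. The record gives no direction; the compounds picked for IC50 retests had high values, so higher reads as stronger inhibition. About 67,000 compounds were tested under these conditions; 0.46% (about 300) showed 50% or more at least once.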
C: 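Protease assay of ClpP1P2, read by the AMC dye that it sets free. Target: ClpP1P2, Mycobacterium tuberculosis (UniProt P9WPC5 and UniProt P9WPC3). Compounds at 50 µM. Direction is inferred from only a few compounds that gave an IC50; most scored high, so higher reads as stronger inhibition. Most other retested compounds had strongly negative values. Of about 69,000 compounds tested this way, about 10 (0.015%) reached 50% or more in at least one test.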

The filed quantity is “Percent Effect” (%). How 0% and 100% were set is not recorded. Most values in the screen are low, and negative values occur. Compounds were drawn at random from those tested, without regard to their results. A dash means the value is not listed here; it may have been measured.

compound,A,B,C
COc1ccccc1CN1CCCC(n2cccn2)C1 (stereo not shown),1.816,-,3.016
Cc1oncc1C(=O)N1CCC2(CCN(Cc3cccnc3)C2=O)C1 (stereo not shown),-19.19,10.43,-16.73
Nc1nnc(SCc2cc(=O)n3c4c(sc3n2)CCCC4)[nH]1,9.767,-19.14,-3.248
O=C(NCC1CC1)c1c2c(N3CCCC3)ncnc2n2ccccc12,-1.481,-8.403,-67.75
Cc1cnc(C(=O)N2CCN(c3ncc4c(n3)CCOC4)CC2)cn1,0.2584,9.067,-12.96
CCC1CN(C(=O)c2cnc(-c3cnn(C)c3)s2)CCO1 (stereo not shown),1.168,-2.106,-1.098
CCC(C)NC(=O)NCc1cc2n(n1)CCCN(C1CCCCC1)C2 (stereo not shown),0.9652,-5.878,12.64
Cc1noc(C)c1C(=O)N1CCC2(CC(N(C)c3ccncn3)C2)C1 (stereo not shown),1.376,-3.225,-6.029
CC(C)(C)c1coc([C@@H]2COCCN2Cc2ccccc2)n1,3.889,-28.13,-11.52
CC(C)Oc1ncccc1CNC(=O)NC1CCOc2ccccc21 (stereo not shown),-3.221,-,-28.23
COC(=O)NCC(=O)NCC1(c2c(F)cccc2F)CCCC1,-1.316,-17.48,2.084
O=C(O)[C@@H]1CN(Cc2nc3ncccn3n2)C[C@H]1c1cccc(F)c1,3.814,0.06827,-10.11
CCCOC(=O)NCCC1CN(c2cnn(C)c(=O)c2)CCO1 (stereo not shown),4.2,3.322,23.64
CCCC(=O)N1CCCCC1c1nc(N(C)C)ncc1-c1cc(C)no1 (stereo not shown),2.221,-7.772,-10.64
Cc1cc(C)n(C2CN(CC(O)Cn3cccn3)C2)n1 (stereo not shown),1.475,2.95,13.59
CC(C)c1nc2c(n1C)CCN(CC(=O)Nc1nccs1)C2,6.998,-20.95,6.249
Cc1cc(NC(=O)c2ccc(-n3ncc(C#N)c3N)cc2)n(C)n1,1.144,-5.719,-22.24
CN(C)c1ccc(C(=O)N2CCN(Cc3cscn3)CC2)cn1,0.7101,-8.972,-9.836
CCN1CC2(CCC1=O)CCN(Cc1cccc(OC(F)F)c1)CC2,8.138,-5.202,-10.39
COC(=O)CCC(=O)N1CCc2nc(C(=O)N(C)C)sc2CC1,12.55,-35.18,4.28
COc1cccc(Nc2nc(C3CCNCC3)c3ccccn23)c1,2.292,-84.34,-7.337
Cc1nnc2n1CCN(CC(=O)NC(C)c1ccc3ccccc3c1)C2 (stereo not shown),6.984,-24.61,-3.321
CN1N=C(C(=O)N2CCN(c3ncccc3Cl)CC2)CCC1=O,1.67,9.683,-10.61
CCc1nc(CN(C)C2CCN(CCS(C)(=O)=O)C2)no1 (stereo not shown),5.874,-6.364,10.48
Cc1ccn(CCC(=O)N2CCOC(c3nc(-c4cccs4)no3)C2)n1 (stereo not shown),3.175,-20.73,-2.53
Cc1ccc(NC2CCN(C(=O)CCc3ccsc3)CC2)nn1,1.051,-13.96,-47.03
O=C(c1cc(F)ccc1F)C1CCN(C(=O)c2ccccn2)CC1,5.792,-19.48,11.48
CC(O)CN1CC2(CCC1=O)CCN(Cc1cc(F)ccc1Cl)CC2 (stereo not shown),-3.003,-19.98,-1.413
CCn1ncc(CNc2[nH]cnc3nncc2-3)c1C,6.174,-13.31,9.333
O=C(c1coc(CN2CCN(c3ccccc3F)CC2)n1)N1CC=CC1,-1.298,-18.15,6.656
Cc1ccc(-c2nc(CCNC(=O)NC3CCN(C)CC3)co2)cc1,8.793,-2.463,2.498
CN1CCCN(c2nccc(-c3c[nH]nc3-c3ccncc3)n2)CC1,3.351,24.52,-10.98
CCc1nccn1CCC(=O)N1CC[C@@H](c2ccc(F)cc2)[C@H](O)C1,8.241,-18.68,4.216
O=C(O)CSc1nnc(-c2ccn[nH]2)n1-c1ccccc1C(F)(F)F,9.674,-19.24,-12.57
Cn1c(C(F)(F)F)nn(CCNC(=O)Nc2ccccc2F)c1=O,3.299,-45.71,-4.123
CCOC(=O)CCNC(=O)c1cccc2ccc(C)nc12,2.732,-11.68,-1.509
CC(C)NC(=O)[C@H]1C[C@@H]2[C@@H](C1)OCCN2Cc1cccnc1,-4.912,-0.9648,-6.768
CCOCCC(=O)NCC1CCCO1 (stereo not shown),-0.5495,15.49,-16.18
CCOc1ccc(NC(C)c2nnnn2-c2ccccc2)cc1CO (stereo not shown),-8.317,-8.322,-7.382
CC(=O)NC1CCCN(C(=O)NCc2cccnc2)C1 (stereo not shown),0.447,-11.34,-23.95
CCc1nc(C2CCCN(C(=O)c3ccccc3Cl)C2)no1 (stereo not shown),0.9754,-5.714,-15.79
CCSCCNC(=O)c1cnc(-c2ccccc2)nc1O,-0.618,-5.66,-8.577
CN(C)C(=O)CCC(=O)NCc1cccnc1-n1cnc2ccccc21,4.641,-4.531,-6.689
Fc1cnc(N2CCCC3(CCN(Cc4ccsc4)C3)C2)nc1 (stereo not shown),2.85,-17.14,-12
O=C(CC[C@@H]1CCCN2CCCC[C@H]12)N1CCC(c2nnc[nH]2)CC1,2.971,-29.23,-6.81
CC(C)N1CCCC2(CCN(C(=O)COCC(F)(F)C(F)F)C2)C1=O (stereo not shown),4.199,-1.15,-5.533
CCCc1nc(CN2CCc3c(ncn3C3CC3)C2)cs1,2.42,-35.26,-10.51
Cc1[nH]ncc1C(=O)N1CCCC1c1noc(C2CC2)n1 (stereo not shown),-0.5905,-22.51,-15.49
CN(C)C(=O)[C@H]1CC[C@@H]2[C@@H](CCN2C(=O)N(C)C)O1,2.404,17.77,0.3262
CC(C)CC(=O)N1CC[C@@H]2CN(Cc3cccnc3)S(=O)(=O)[C@@H]2CC1,1.88,-7.323,1.705
c1cc(-c2ccc3nc(C4CCN(CC5CC5)CC4)nn3c2)cs1,4.073,-4.963,-15.18
O=C(CCc1ccccc1)N1CCC(N2CCNC2=O)CC1,-0.2837,-14.28,1.67
CC(C)CN1CC[C@@H]2[C@@H]1CCN2C(=O)N1CCCC1,3.755,-31.34,-6.536

The values are deposited in ChEMBL (CHEMBL3988442, “University of Dundee, Small-Polar-MMV Screening Library” (2021)).